Laboratory results: paper PMC4564187, “Pharmacokinetic and Pharmacodynamic Characterisation of an Anti-Mouse TNF Receptor 1 Domain Antibody Formatted for In Vivo Half-Life Extension” (PLoS ONE, 2015)
No constants are given. Whether binding was seen depends on the method and setting.

Target: DMS5540
Test: SEC; analytical SEC, TSK G2000 SWXL, 0.5 ml/min, sodium phosphate pH6.8 based mobile phase with 5% organic solvent; 10 μl of 0.6 mg/ml DMS5540; both purified

binding: no binding (tested: 0.6mg/ml)
B1: DMS5540 (bispecific antibody)
chain: EVQLLESGGGLVQPGGSLRLSCAASGFTFNRYSMGWLRQAPGKGLEWVSRIDSYGRGTYYEDPVKGRFSISRDNSKNTLYLQMNSLRAEDTAVYYCAKISQFGSNAFDYWGQGTQVTVSSASTDIQMTQSPSSLSASVGDRVTITCRASRPIGTMLSWYQQKPGKAPKLLILFGSRLQSGVPSRFSGSGSGTDFTLTISSLQPEDFATYYCAQAGTHPTTFGQGTKVEIKR
notes: anti-mouse TNFR1 VH dAb DOM1m-21-23; three residue linker (Ala-Ser-Thr); About 25 kDa; two human single variable domains on one chain; also called mouse TNFR1 antagonist; genetic fusion of DOM1m-21-23 with the AlbudAb DOM7h-11-12; source: E. coli BL21(DE3) strain derivatives, purified from culture supernatant (Protein-A, cation exchange, SEC when necessary)
